These are yes or no findings as the source states them, for the method shown. For part of these data: Binding seen in cells or lysates may run through a third protein. Some results given as binding are weak or reduced against the parent protein; the word gives no strength. For part of these data: Sequences can lack the tags named with a protein.
Tests used:
[1] = target: Flag-Stau1, full length (human) (UniProt O95793); assay: co-IP; Flag-Stau1, HA-UPF1 and HA-UPF2 co-transfected in HEK 293T; RIPA lysate with RNase A (60 µg/mL); anti-Flag M2 resin, 4 °C 1.5 h; anti-HA and anti-Flag blots
[2] = target: GST-Stau1, full length (human) (UniProt O95793); assay: pull-down; GST-tagged bait and prey mixed in equal amounts, 4 °C 16 h, Glutathione Sepharose; 20 mM HEPES pH 7.5, 150 mM NaCl, 10% glycerol, 0.1% NP-40; eluted with 20 mM glutathione, SDS-PAGE and Coomassie; bands quantified with ImageJ; both purified

Protein sequences, listed by entry. Tags and fused reporters are not part of them. Lines headed by an entry give the natural chain unless they say otherwise; changes in a name come on top.
UniProt O95793: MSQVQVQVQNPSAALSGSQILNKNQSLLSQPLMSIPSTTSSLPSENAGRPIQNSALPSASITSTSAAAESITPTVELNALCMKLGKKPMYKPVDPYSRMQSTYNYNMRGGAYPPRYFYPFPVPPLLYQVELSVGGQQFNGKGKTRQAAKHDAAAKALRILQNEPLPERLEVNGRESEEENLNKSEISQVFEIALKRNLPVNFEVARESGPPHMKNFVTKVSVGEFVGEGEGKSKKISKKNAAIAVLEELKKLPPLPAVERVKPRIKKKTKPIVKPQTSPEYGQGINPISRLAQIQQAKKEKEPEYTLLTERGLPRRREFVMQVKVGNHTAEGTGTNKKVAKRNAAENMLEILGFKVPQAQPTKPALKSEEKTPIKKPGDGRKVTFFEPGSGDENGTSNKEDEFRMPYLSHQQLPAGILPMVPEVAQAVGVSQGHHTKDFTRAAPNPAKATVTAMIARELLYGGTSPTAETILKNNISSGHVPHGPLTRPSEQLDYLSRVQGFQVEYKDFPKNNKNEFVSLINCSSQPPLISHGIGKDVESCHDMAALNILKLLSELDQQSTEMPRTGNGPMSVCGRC
UniProt Q9HAU5: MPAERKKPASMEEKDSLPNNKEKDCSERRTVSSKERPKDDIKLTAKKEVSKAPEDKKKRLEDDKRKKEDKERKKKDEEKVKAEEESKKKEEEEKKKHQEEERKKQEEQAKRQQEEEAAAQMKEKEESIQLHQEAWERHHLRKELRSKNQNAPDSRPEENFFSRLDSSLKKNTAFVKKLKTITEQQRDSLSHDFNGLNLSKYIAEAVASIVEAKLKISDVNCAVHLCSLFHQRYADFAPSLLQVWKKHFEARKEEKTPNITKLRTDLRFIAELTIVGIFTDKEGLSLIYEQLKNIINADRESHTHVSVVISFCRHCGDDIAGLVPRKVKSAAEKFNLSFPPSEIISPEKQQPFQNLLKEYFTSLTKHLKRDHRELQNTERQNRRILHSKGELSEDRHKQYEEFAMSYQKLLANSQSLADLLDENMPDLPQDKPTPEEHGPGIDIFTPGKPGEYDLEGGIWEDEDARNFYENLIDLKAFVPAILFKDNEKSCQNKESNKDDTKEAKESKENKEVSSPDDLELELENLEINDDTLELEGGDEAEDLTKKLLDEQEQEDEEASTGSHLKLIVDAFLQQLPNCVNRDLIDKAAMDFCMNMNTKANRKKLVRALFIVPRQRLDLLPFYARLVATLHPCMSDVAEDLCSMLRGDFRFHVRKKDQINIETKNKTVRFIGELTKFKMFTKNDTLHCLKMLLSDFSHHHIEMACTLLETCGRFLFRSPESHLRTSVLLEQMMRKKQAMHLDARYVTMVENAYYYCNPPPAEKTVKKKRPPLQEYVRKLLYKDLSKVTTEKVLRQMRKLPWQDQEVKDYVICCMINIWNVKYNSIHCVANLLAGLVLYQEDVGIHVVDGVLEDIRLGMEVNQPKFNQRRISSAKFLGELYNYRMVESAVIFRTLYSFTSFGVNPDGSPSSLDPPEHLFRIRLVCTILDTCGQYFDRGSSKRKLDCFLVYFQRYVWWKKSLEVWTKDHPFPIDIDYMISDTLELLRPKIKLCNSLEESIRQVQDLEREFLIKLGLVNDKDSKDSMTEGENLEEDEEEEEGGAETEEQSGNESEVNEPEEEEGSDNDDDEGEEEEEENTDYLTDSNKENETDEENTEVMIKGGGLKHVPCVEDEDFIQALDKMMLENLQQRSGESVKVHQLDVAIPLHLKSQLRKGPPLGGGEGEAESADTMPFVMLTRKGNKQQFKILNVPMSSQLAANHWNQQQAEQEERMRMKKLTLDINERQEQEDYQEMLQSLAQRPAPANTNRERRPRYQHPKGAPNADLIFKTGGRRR

binding [1] | binding [2] | Molecule
binds |  | HA-UPF2, full length (from UniProt Q9HAU5 1-1272)
 | binds | UPF2 (126–1227) (from UniProt Q9HAU5 126-1227) (domain or fragment)
binds |  | HA-UPF1, full length (protein, UniProt Q92900-2 1-1118) MSVEAYGPSSQTLTFLDTEEAELLGADTQGSEFEFTDFTLPSQTQTPPGGPGGPGGGGAGGPGGAGAGAAAGQLDAQVGPEGILQNGAVDDSVAKTSQLLAELNFEEDEEDTYYTKDLPIHACSYCGIHDPACVVYCNTSKKWFCNGRGNTSGSHIVNHLVRAKCKEVTLHKDGPLGETVLECYNCGCRNVFLLGFIPAKADSVVVLLCRQPCASQSSLKDINWDSSQWQPLIQDRCFLSWLVKIPSEQEQLRARQITAQQINKLEELWKENPSATLEDLEKPGVDEEPQHVLLRYEDAYQYQNIFGPLVKLEADYDKKLKESQTQDNITVRWDLGLNKKRIAYFTLPKTDSDMRLMQGDEICLRYKGDLAPLWKGIGHVIKVPDNYGDEIAIELRSSVGAPVEVTHNFQVDFVWKSTSFDRMQSALKTFAVDETSVSGYIYHKLLGHEVEDVIIKCQLPKRFTAQGLPDLNHSQVYAVKTVLQRPLSLIQGPPGTGKTVTSATIVYHLARQGNGPVLVCAPSNIAVDQLTEKIHQTGLKVVRLCAKSREAIDSPVSFLALHNQIRNMDSMPELQKLQQLKDETGELSSADEKRYRALKRTAERELLMNADVICCTCVGAGDPRLAKMQFRSILIDESTQATEPECMVPVVLGAKQLILVGDHCQLGPVVMCKKAAKAGLSQSLFERLVVLGIRPIRLQVQYRMHPALSAFPSNIFYEGSLQNGVTAADRVKKGFDFQWPQPDKPMFFYVTQGQEEIASSGTSYLNRTEAANVEKITTKLLKAGAKPDQIGIITPYEGQRSYLVQYMQFSGSLHTKLYQEVEIASVDAFQGREKDFIILSCVRANEHQGIGFLNDPRRLNVALTRARYGVIIVGNPKALSKQPLWNHLLNYYKEQKVLVEGPLNNLRESLMQFSKPRKLVNTINPGARFMTTAMYDAREAIIPGSVYDRSSQGRPSSMYFQTHDQIGMISAGPSHVAAMNIPIPFNLVMPPMPPPGYFGQANGPAAGRGTPKGKTGRGGRQKNRFGLPGPSQTNLPNSQASQDVASQPFSQGALTQGYISMSQPSQMSQPGLSQPELSQDSYLGDEFKSQIDVALSQDSTYQGERAYQHGGVTGLSQY

From publication PMC6838198, “Insights into the assembly and architecture of a Staufen-mediated mRNA decay (SMD)-competent mRNP” (Nature Communications, 2019)
